# Results reported in patent US6239107A, “Conjugates of lipophilic moieties and fragments of vasoactive intestinal peptide (VIP)” (Yeda Research & Development Co., Ltd., priority 1996, dated 2001).
# Entries after “also recorded” stand apart in the source; their conditions may differ. Not every detail of the peptide structures is certain; ends, links or a residue may be inferred. Non-standard residues stand in square brackets, D forms with d. Residues, ends and D or L forms follow the SMILES beside them. *: point of attachment. Stearoyl = CCCCCCCCCCCCCCCCCC(=O)*
# What was measured:
# [1] = test system: rat cerebral cortical cell cultures (neurons) treated with β-amyloid peptide (amino acids 25-35); assay: Neuronal survival assay, protection against β-amyloid toxicity; format: cell-based
# Method: β-Amyloid peptide is known to be involved in Alzheimer's disease and is a toxic substance to neurons grown in culture (Pike et al., J. of Nezarosci., 13(4), 1676-1687 (1993); Yankner et al., Science, 250:279-282 (1990); Gozes et. al., Proc. Natl. Acad. Sci. USA, 93:[…] (1996)).
# Rat cerebral cortical cell cultures were prepared by a slight modification of the techniques described by Forsythe and Westbrook (J. Physiol. Lord. 365:515, (1988)), in which cerebral cortex was used instead of hippocampus and newborn rats were utilized instead of E16 mice. Cerebral cortical cells (1.5-15×10^5 cells/35 mm dish) were plated on confluent cerebral cortical astrocyte feeder cultures as described (Gozes et al., J. Pharmacol Erp. Therap., 257:959-966 (1991)). The culture medium was DMEM-(Dulbeco Modified Eagle Medium) containing 5% horse serum and N3 [media supplement containing a hormone cocktail, according to (Romijn et al., Brain Res., 254:(4),583-589 (1981))]. After eight days growth in vitro, the cultures were given a complete change of medium and then were treated with the β-amyloid peptide (amino acids 25-35) for 5 days.
# The β-amyloid peptide fragment was dissolved in water to a finalconcentration of 2.5 mM. Experiments were performed with increasing, doses of the conjugates of the invention (1 mg initially mixed with 10 μl DMSO and then with a further 10 μl of DMSO to achieve complete solubilization and diluted in PBS to obtain a stock solution of 10^-3 M) that were added together with 25 μM β-amyloid peptide (amino acids 25-35) to dissociated cerebral cortical cells, nine days after plating of neurons. Ten μl of conjugate solution was added to 1 ml culture medium. The duration of treatment was 5 days with no change of media. After 14 days in culture, cells were fixated for immunocytochemistry and stained with antibodies against NSE (neuron specific enolase, a neuronal marker). Neuronal cell counts were executed on 60 fields. with a total area of 25 mm^2. Neurons were counted without knowledge of type of treatment as before. Each value is the mean±SEM of 3 dishes.
# [2] = test system: rats injected with AF64A after learning the task; assay: Model for memory retention of a previously learned water maze task; format: in vivo, rat; settings: one week of intranasal peptide
# [3] = test system: Choline acetyl transferase (Chat) activity; assay: Cholinergic activity in brains of ApoE-deficient mice; format: in vivo; settings: 21-day-old ApoE deficient mice, chronic s.c. injection day 1-14 (4-16 μg); FIG. 14
# [4] = test system: New Zealand white rabbits, corpus cavernosum; assay: Intracavernosal pressure in a rabbit model of impotence; format: in vivo; settings: 10 μg injected into the corpus cavernosum; from 15-20 mmHg; preliminary results, FIG. 30
# [5] = test system: Apolipoprotein E-deficient newborn mice; assay: Acquisition of developmental milestones in a model for mental retardation; format: in vivo; settings: ApoE deficient newborn mice, s.c. injection
# Method: It has recently been discovered that mice deficient in apolipoprotein E (ApoE) (Plump et al., Cell, 71:343-363 (1992)) are retarded in their acquisition of developmental milestones.
# 8 newborn normal mice were injected (s.c. 1.2 μg 120 μu) with St-Lys-Lys-Tyr-Leu-NH2 or with saline. 8 ApoE deficient newborn mice were treated similarly.
# [6] = test system: male rats (Wistar) injected i.c.v. with the cholinergic blocker AF64A; format: in vivo, rat; settings: daily nasal administration 10 μg/40 μl in 10% Sefsol, 40% isopropanol, 1 hour prior to testing, versus AF64A only
# Method: In vivo Model for Cholinergic Inhibition. 18 Male rats (Wistar, 250-300 g) were injected intracerebroventricularly (i.c.v.) at a rate of 0.21 μl/min., using plastic tubing (PE-20) attached to 25G needle; controls received an injection of saline 2 μl/side, experimental animals received injections of the cholinergic blocker (ethylcholine aziridium) AF64A (3 nmol/2 μl/side).
# Drug treatment was initiated 7-10 days after AF64A injection. Animals were divided into two equal groups. Test group received daily nasal administration of St-Lys-Lys-Tyr-Leu-NH2 (SEQ ID NO:6) dissolved in 10% Sefsol™ and 40% isopropanol at a concentration of 10 μg/40 μl (20 μl administered through each nostril). […]
# Rats were placed in a circular pool, 1.26 m in diameter, 0.2 m deep, equipped with a clear plexiglas column, with a 13.3 cm platform reaching just below the surface of the water (22-24° C). […] The latency of reaching the platform was recorded for each rat (in seconds) and the changes over days of training were graphed, which reflect learning and memory.
# FIG. 3 depicts the effects of St-Lys-Lys-Tyr-D-Ala-NH2 (indicated KKYO in the figure) on learning and memory in the Alzheimer's in vivo test (AF64A-cholinotoxicity test) as described above. […] Following this test the platform is placed back in the water pool, but this time it is visible to the swimming rat and the time required to reach it is measured. […]
# [7] = test system: castrated male rats with partial testosterone replacement; assay: Penile reflexes in castrated rats after transdermal application (rat model of impotence); format: in vivo; settings: 10^-3 M in DMSO, 10 μl per application, versus control, FIG. 16
# [8] = test system: normal rats injected with saline instead of AF64A; assay: Morris water maze, learning and memory of normal animals; format: in vivo, rat; settings: intranasal administration versus vehicle, FIG. 6
# [9] = survival of β-amyloid treated neurons, summation of five independent experiments
compound,measurement,setting,value
CCCCCCCCCCCCCCCCCC(=O)N[C@@H](CCCCN)C(=O)N[C@@H](CCCCN)C(=O)N[C@@H](Cc1ccc(O)cc1)C(=O)N[C@@H](CC(C)C)C(N)=O [St-Lys-Lys-Tyr-Leu-NH2] (Stearoyl-KKYL-NH2),cell count of cells treated with conjugate and β-amyloid peptide versus untreated control cells,"[1]; FIG. 1, protection against naturally occurring death",higher than the counts of untreated control cells
same,Active concentration (M),"[1]; added together with 25 μM β-amyloid peptide (25-35), 5 days, NSE-stained neuron counts",10^-13 -10^-9 M
same,Neuronal survival (%),"[1]; at the active concentration, with 25 μM β-amyloid peptide (25-35), 5 days, as compared to control",80-110%
same,concentration of peak activity (FIG. 1),[1]; [9],10^-12 -10^-10 M
same,concentrations at which activity is exhibited (FIG. 1),[1]; [9],10^-13 -10^-9 M
same,"time required to reach the platform, first swim (retention of a learned task)",[2]; FIG. 7,protected from memory loss
same,"time required to reach the hidden platform, second swim",[2]; FIG. 8,improvement in learning and memory
same,choline acetyl transferase activity in brain,[3],increase in choline acetyl transferase activity; also recorded: increases cholinergic activity
same,penile blood pressure,[4],75 mmHg
same,forelimb placing behavior acquisition,"[5]; versus untreated ApoE deficient mice, FIGS. 10 and 11",improved their placing acquisition essentially to the level of control
same,cliff avoidance acquisition,[5]; FIGS. 12 and 13,even better cliff avoidance acquisition than normal controls or similar cliff avoidance behavior to control
same,latency of reaching the platform over days of training (learning and memory),[6],able to improve learning and memory
"CCCCCCCCCCCCCCCCCC(=O)N[C@@H](C)C(=O)N[C@H](C(=O)N[C@@H](CCCCN)C(=O)N[C@@H](CCCCN)C(=O)N[C@@H](Cc1ccc(O)cc1)C(=O)N[C@@H](CC(C)C)C(=O)N[C@@H](CC(N)=O)C(=O)N[C@@H](CO)C(=O)N[C@H](C(=O)N[C@@H](CC(C)C)C(=O)N[C@@H](CC(N)=O)C(N)=O)[C@@H](C)CC)C(C)C [peptide 6, St-Ala-Val-Lys-Lys-Tyr-Leu-Asn-Ser-Ile-Leu-Asn-NH2] (Stearoyl-AVKKYLNSILN-NH2)",number of E2,[7],significantly improve
same,number of cups,[7],significantly improve
CCCCCCCCCCCCCCCCCC(=O)N[C@@H](CCCCN)C(=O)N[C@@H](CCCCN)C(=O)N[C@@H](Cc1ccc(O)cc1)C(=O)N[C@H](C)C(N)=O [St-Lys-Lys-Tyr-D-Ala-NH2] (Stearoyl-KKY[dA]-NH2),learning in the water maze,[8],apparent somewhat faster learning
